Data from paper PMC10619432.
Where a chain is given by its changes, count along the chain named. These are yes or no findings as the source states them, for the method shown. Binding seen in cells or lysates may run through a third protein. Some results given as binding are weak or reduced against the parent protein; the word gives no strength.

Sequences of proteins named here, by UniProt entry; tags and fusion partners are left off.
UniProt O43586: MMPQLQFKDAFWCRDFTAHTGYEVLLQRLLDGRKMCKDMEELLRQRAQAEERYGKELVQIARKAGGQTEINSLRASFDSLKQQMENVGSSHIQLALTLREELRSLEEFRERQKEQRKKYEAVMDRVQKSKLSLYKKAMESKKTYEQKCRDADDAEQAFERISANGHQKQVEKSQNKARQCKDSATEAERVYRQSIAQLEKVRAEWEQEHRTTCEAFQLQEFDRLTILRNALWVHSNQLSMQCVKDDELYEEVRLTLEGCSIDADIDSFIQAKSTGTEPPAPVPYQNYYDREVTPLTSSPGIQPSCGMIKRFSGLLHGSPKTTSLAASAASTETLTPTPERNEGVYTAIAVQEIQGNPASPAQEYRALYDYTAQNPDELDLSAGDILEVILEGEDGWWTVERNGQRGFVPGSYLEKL
UniProt Q16513: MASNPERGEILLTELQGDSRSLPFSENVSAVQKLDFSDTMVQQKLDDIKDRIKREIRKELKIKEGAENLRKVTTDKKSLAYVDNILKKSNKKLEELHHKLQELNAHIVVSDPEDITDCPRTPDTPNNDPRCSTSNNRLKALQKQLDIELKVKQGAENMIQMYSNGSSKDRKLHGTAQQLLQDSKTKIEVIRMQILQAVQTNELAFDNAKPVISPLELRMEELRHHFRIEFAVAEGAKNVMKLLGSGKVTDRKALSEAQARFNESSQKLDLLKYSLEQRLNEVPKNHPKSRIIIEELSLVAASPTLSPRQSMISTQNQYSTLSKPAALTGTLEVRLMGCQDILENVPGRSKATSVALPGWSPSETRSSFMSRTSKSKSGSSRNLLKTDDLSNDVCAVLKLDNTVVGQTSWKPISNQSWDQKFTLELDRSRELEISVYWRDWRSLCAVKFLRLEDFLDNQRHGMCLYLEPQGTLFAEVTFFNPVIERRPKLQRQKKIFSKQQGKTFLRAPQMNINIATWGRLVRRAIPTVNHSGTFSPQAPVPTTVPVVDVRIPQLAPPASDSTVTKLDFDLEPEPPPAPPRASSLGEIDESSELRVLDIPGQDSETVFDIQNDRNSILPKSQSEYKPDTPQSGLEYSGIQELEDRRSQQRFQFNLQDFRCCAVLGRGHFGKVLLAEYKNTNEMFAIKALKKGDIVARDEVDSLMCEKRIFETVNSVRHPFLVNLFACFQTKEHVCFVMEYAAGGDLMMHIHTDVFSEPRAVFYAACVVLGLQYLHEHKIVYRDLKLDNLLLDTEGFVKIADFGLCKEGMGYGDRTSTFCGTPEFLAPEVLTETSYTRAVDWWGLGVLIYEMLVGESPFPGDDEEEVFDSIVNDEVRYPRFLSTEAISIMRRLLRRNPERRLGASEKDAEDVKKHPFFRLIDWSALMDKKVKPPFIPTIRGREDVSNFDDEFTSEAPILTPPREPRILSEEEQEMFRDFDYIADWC

What was measured:
[1] = molecular target: T1, pyrin E583A variant (human) (UniProt O15553); experiment: co-IP; HEK293T cells lysed in NP-40 lysis buffer 24 hours after transfection; Flag or HA magnetic beads; eluted in SDS sample loading buffer, Western blot
T1 sequence: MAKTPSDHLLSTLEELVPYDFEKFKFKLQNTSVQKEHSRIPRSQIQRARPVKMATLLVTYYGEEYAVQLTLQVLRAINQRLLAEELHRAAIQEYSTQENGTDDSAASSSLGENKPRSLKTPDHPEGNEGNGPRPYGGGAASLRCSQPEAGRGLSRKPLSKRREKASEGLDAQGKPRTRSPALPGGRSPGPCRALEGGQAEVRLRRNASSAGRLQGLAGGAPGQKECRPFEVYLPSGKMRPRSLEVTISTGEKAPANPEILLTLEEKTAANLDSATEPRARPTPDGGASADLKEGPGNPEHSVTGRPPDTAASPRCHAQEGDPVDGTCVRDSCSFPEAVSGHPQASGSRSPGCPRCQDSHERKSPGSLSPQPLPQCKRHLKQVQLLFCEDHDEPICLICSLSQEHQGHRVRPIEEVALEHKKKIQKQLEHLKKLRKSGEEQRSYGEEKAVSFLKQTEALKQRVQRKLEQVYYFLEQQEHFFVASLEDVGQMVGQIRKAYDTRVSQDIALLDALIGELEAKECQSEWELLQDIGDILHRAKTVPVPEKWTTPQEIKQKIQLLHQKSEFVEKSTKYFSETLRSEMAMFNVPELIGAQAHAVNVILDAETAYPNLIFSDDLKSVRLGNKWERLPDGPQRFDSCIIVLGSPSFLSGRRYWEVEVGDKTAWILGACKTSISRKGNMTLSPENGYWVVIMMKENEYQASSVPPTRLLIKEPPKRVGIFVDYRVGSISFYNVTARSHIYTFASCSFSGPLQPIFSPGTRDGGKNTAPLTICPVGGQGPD

[2] = molecular target: T2, pyrin, wild type (encoded by MEFV) (human) (UniProt O15553); experiment: as above
T2 sequence: T1 sequence with A583E

binding [1] | binding [2] | Substance
binds | binds | PSTPIP1 (from UniProt O43586 1-416)
binds | binds | PKN2 (from UniProt Q16513 1-984)
